No constants are given. Whether binding was seen depends on the method and setting. In cells and extracts the contact can be indirect.
Molecular target: GFP-PLK1AM (full-length human PLK1 with the phospho-substrate binding groove mutations H538A, K540M, N-terminally fused to enhanced GFP) (human) (UniProt P53350)
Test: co-IP; GFP-Trap beads pull down GFP-PLK1 (Wt/AAD/AM) from lysates of HeLa cells synchronised in mitosis by double thymidine block and release; immunoblot with anti-NEDD1; band intensity of the IP normalised to its input lane

Chains of the proteins cited; added tags and fusions are not shown.
UniProt Q8NHV4: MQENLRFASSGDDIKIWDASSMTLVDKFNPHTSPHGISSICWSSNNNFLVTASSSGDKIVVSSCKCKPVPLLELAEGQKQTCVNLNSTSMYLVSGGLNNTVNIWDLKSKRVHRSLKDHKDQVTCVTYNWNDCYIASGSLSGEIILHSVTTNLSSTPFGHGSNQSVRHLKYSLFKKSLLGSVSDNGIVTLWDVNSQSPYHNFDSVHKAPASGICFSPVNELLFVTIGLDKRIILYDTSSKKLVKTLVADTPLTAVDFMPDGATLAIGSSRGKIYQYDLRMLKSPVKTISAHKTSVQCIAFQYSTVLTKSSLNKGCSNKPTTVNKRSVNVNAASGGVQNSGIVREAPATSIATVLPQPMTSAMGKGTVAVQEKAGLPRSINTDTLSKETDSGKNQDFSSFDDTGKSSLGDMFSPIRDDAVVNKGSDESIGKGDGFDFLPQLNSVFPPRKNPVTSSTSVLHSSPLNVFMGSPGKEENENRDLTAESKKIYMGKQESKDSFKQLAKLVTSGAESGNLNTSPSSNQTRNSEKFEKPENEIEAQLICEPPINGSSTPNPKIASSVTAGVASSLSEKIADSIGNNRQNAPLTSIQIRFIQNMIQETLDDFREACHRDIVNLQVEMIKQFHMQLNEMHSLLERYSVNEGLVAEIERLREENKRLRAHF

NEDD1 (Neural precursor cell Expressed Developmentally Downregulated gene1) (from UniProt Q8NHV4 1-660)
binding: no binding

Source: PMC6828814, “A cryptic hydrophobic pocket in the polo-box domain of the polo-like kinase PLK1 regulates substrate recognition and mitotic chromosome segregation” (Scientific Reports, 2019)
